From PMC8586251, “Cryo-EM structure provides insights into the dimer arrangement of the O-linked β-N-acetylglucosamine transferase OGT” (Nature Communications, 2021)
No constants are given. Whether binding was seen depends on the method and setting. Some binding calls cover weakened binding; strength is not graded here.

Biological target: T1, O-GlcNAc transferase OGT, full length, isoform 1 (construct for cryo-EM), O15294
T1 chain: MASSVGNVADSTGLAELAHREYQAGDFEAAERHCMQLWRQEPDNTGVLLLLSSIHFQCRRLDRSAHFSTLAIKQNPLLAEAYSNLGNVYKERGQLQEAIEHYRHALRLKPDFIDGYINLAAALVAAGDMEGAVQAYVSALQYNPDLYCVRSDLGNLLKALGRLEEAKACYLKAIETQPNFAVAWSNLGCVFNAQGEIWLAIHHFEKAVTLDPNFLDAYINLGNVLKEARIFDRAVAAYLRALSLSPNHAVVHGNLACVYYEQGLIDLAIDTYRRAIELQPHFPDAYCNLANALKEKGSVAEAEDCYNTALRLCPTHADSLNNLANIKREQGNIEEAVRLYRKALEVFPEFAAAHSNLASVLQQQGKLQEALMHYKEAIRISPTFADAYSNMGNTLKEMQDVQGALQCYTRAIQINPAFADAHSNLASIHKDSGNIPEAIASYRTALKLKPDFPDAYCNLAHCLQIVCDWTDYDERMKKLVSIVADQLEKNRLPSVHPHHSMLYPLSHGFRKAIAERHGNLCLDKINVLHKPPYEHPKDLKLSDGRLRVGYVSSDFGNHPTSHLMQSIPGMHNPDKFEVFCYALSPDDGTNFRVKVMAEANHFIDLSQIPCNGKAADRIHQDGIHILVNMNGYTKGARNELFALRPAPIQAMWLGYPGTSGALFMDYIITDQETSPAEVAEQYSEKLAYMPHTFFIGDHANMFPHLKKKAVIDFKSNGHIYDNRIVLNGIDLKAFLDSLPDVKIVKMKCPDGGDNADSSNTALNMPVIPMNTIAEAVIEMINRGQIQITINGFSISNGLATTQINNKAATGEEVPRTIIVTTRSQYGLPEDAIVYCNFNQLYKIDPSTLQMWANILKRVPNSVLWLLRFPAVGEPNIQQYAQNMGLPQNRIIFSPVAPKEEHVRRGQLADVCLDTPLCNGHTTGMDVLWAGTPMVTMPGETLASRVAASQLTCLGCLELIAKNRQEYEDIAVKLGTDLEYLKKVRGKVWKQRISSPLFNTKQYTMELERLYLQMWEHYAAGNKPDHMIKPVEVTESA
Assay: cryo-EM structure; unliganded OGT at 1 mg/ml in 25 mM HEPES pH 7.5, 150 mM NaCl, 1 mM DTT, 0.5% glycerol; 5.3 Å map; dimer; both purified
Conditions: remark: other sources report otherwise

B1: O-GlcNAc transferase OGT, full length, isoform 1 (construct for cryo-EM), O15294-3 1-1036 (enzyme)
chain: MASSVGNVADSTGLAELAHREYQAGDFEAAERHCMQLWRQEPDNTGVLLLLSSIHFQCRRLDRSAHFSTLAIKQNPLLAEAYSNLGNVYKERGQLQEAIEHYRHALRLKPDFIDGYINLAAALVAAGDMEGAVQAYVSALQYNPDLYCVRSDLGNLLKALGRLEEAKACYLKAIETQPNFAVAWSNLGCVFNAQGEIWLAIHHFEKAVTLDPNFLDAYINLGNVLKEARIFDRAVAAYLRALSLSPNHAVVHGNLACVYYEQGLIDLAIDTYRRAIELQPHFPDAYCNLANALKEKGSVAEAEDCYNTALRLCPTHADSLNNLANIKREQGNIEEAVRLYRKALEVFPEFAAAHSNLASVLQQQGKLQEALMHYKEAIRISPTFADAYSNMGNTLKEMQDVQGALQCYTRAIQINPAFADAHSNLASIHKDSGNIPEAIASYRTALKLKPDFPDAYCNLAHCLQIVCDWTDYDERMKKLVSIVADQLEKNRLPSVHPHHSMLYPLSHGFRKAIAERHGNLCLDKINVLHKPPYEHPKDLKLSDGRLRVGYVSSDFGNHPTSHLMQSIPGMHNPDKFEVFCYALSPDDGTNFRVKVMAEANHFIDLSQIPCNGKAADRIHQDGIHILVNMNGYTKGARNELFALRPAPIQAMWLGYPGTSGALFMDYIITDQETSPAEVAEQYSEKLAYMPHTFFIGDHANMFPHLKKKAVIDFKSNGHIYDNRIVLNGIDLKAFLDSLPDVKIVKMKCPDGGDNADSSNTALNMPVIPMNTIAEAVIEMINRGQIQITINGFSISNGLATTQINNKAATGEEVPRTIIVTTRSQYGLPEDAIVYCNFNQLYKIDPSTLQMWANILKRVPNSVLWLLRFPAVGEPNIQQYAQNMGLPQNRIIFSPVAPKEEHVRRGQLADVCLDTPLCNGHTTGMDVLWAGTPMVTMPGETLASRVAASQLTCLGCLELIAKNRQEYEDIAVKLGTDLEYLKKVRGKVWKQRISSPLFNTKQYTMELERLYLQMWEHYAAGNKPDHMIKPVEVTESA
Q: For B1, which binding is on record?
A: binds
